Measurements as given in patent publication US11504414B2, “Bacterial inhibitors” (priority 2016, dated 2022).
Not every detail of the peptide structures is certain; ends, links or a residue may be inferred. Where no end group is shown, it is not given here.

How the values were obtained:
Type in all cases: cell-based, Porphyromonas gingivalis
[1] = system: P. gingivalis 33277; experiment: Growth curves in TSB (OD600); settings: P4 24 μM, OD600 over 30 h
[2] = system: P. gingivalis W83; experiment: Growth curves in TSB (OD600); settings: P4 24 μM, OD600 over 30 h
[3] = system: P. gingivalis W83; experiment: Monotypic biofilm assay on saliva-coated surface (crystal violet)
[4] = system: P. gingivalis 33277; experiment: IL-8 ELISA in culture media of HOKs exposed to P. gingivalis; settings: P4 48 μM; MOI 10; 2 and 18 h
[5] = system: P. gingivalis W83; experiment: as above; settings: P4 48 μM; MOI 10; 2 and 18 h

## NIFKKNVGFKK [P4, NIFKKNVGFKK]
[1]
  growth rates: not significantly changed
[2]
  growth rates: not significantly changed
[3]; 24 μM P4, 48 h
  reduction in biofilm formation: 33%
[3]; 48 μM P4, 48 h
  reduction in biofilm formation: 54%
[4]
  ability of P. gingivalis to reduce accumulation of IL-8 in HOK media: significantly diminished
[5]
  ability of P. gingivalis to reduce accumulation of IL-8 in HOK media: significantly diminished
